Reference: PubChem BioAssay AID248 (DTP/NCI, 2004)
The list shows only some results of the screen, not a fair sample: it gathers tests that were run many times, whatever their T/C, doses with no T/C, and many T/C values between a quarter and a half above the control. Other doses and runs of a compound stand elsewhere. T/C: endpoint of the treated group in % of that of the vehicle group. Some entries give survivors of the animals treated and no T/C: the source files T/C as zero there, which appears to mark a toxic dose or a test without result, not a measured value. Some doses without a T/C left all or most animals alive at the check, yet need not have been tolerated: the source hardly ever lists a survival T/C far under the control, and the zero likely stands for such cases as well. Survivors were counted at the toxicity check, usually on the fifth day, unless a day is given; later deaths do not show. Schedules are NCI's codes, taken here to give the interval after Q, in days (D) or hours (H), and the number of doses after X. For survival time, the PubChem record calls one and a half times the control and up active, and a quarter to a half above the control has no call in these data; cut-offs in other NCI protocols can differ. Some doses were run more than once; their values stand side by side, smallest first. Some T/C values are followed by the survivors on the day toxicity was checked, most often the fifth; without a count, all were alive then.

Test system: L1210 leukemia ip in BDF1 mice, survival T/C
Experiment: NCI In Vivo Anticancer Drug Screen. Data for tumor model L1210 Leukemia (intraperitoneal) in B6D2F1 (BDF1) mice
Details: higher T/C = longer survival
[1] = T/C endpoint: mean survival time, dose: 200.0 mg/kg/injection, schedule: Q01DX001 (ip), vehicle: carboxymethylcellulose (CMC)
[2] = T/C endpoint: mean survival time, dose: 400.0 mg/kg/injection, schedule: Q01DX001 (ip), vehicle: carboxymethylcellulose (CMC)

CNC(=O)Oc1ccc(SC)c(C)c1
survivor count (T/C endpoint: mean survival time, dose: 3.0 mg/kg/injection, schedule: Q01DX009 (ip), vehicle: Klucel (hydroxypropylcellulose) (HPC)): 0 of 3 | survivor count (T/C endpoint: mean survival time, dose: 6.0 mg/kg/injection, schedule: Q01DX009 (ip), vehicle: Klucel (hydroxypropylcellulose) (HPC)): 0 of 3 | survivor count (T/C endpoint: mean survival time, dose: 12.5 mg/kg/injection, schedule: Q04DX002 (ip), vehicle: Klucel (hydroxypropylcellulose) (HPC)): 1 of 3 | survivor count (T/C endpoint: mean survival time, dose: 20.0 mg/kg/injection, schedule: Q01DX001 (ip), vehicle: carboxymethylcellulose (CMC)): 2 of 4 | survivor count (T/C endpoint: mean survival time, dose: 25.0 mg/kg/injection, schedule: Q04DX002 (ip), vehicle: Klucel (hydroxypropylcellulose) (HPC)): 0 of 3 | survivor count (T/C endpoint: mean survival time, dose: 40.0 mg/kg/injection, schedule: Q01DX001 (ip), vehicle: carboxymethylcellulose (CMC)): 0 of 4 | survivor count (T/C endpoint: mean survival time, dose: 50.0 mg/kg/injection, schedule: Q04DX002 (ip), vehicle: Klucel (hydroxypropylcellulose) (HPC)): 0 of 3 | survivor count (T/C endpoint: mean survival time, dose: 80.0 mg/kg/injection, schedule: Q01DX001 (ip), vehicle: carboxymethylcellulose (CMC)): 0 of 4 | survivor count (T/C endpoint: mean survival time, dose: 100.0 mg/kg/injection, schedule: Q01DX001 (ip), vehicle: carboxymethylcellulose (CMC)): 1 of 4 | survivor count (T/C endpoint: mean survival time, dose: 100.0 mg/kg/injection, schedule: Q04DX002 (ip), vehicle: Klucel (hydroxypropylcellulose) (HPC)): 0 of 3 | survivor count [1]: 0 of 4 | survivor count (T/C endpoint: mean survival time, dose: 200.0 mg/kg/injection, schedule: Q04DX002 (ip), vehicle: Klucel (hydroxypropylcellulose) (HPC)): 0 of 3 | survivor count [2]: 0 of 4 | survivor count (T/C endpoint: mean survival time, dose: 400.0 mg/kg/injection, schedule: Q04DX002 (ip), vehicle: Klucel (hydroxypropylcellulose) (HPC)): 0 of 3

CC1=N/C(=N\c2nc3cc(C)c(C)cc3[nH]2)NC(=O)CC1
survivor count (T/C endpoint: mean survival time, dose: 150.0 mg/kg/injection, schedule: Q01DX001 (ip), vehicle: saline): 1 of 6 | survivor count (T/C endpoint: mean survival time, dose: 300.0 mg/kg/injection, schedule: Q01DX001 (ip), vehicle: saline): 0 of 6

C[n+]1c2ccccc2c(-c2c3ccccc3[n+](C)c3ccccc23)c2ccccc21
survivor count (T/C endpoint: mean survival time, dose: 100.0 mg/kg/injection, schedule: Q01DX001 (ip), vehicle: Klucel (hydroxypropylcellulose) (HPC)): 1 of 6 | survivor count (T/C endpoint: mean survival time, dose: 200.0 mg/kg/injection, schedule: Q01DX001 (ip), vehicle: Klucel (hydroxypropylcellulose) (HPC)): 3 of 6 | survivor count (T/C endpoint: mean survival time, dose: 400.0 mg/kg/injection, schedule: Q01DX001 (ip), vehicle: Klucel (hydroxypropylcellulose) (HPC)): 0 of 6

C[N+](C)(C)C1CS(=O)C1 (stereo unspecified)
survivor count (T/C endpoint: mean survival time, dose: 100.0 mg/kg/injection, schedule: Q04DX003 (ip), vehicle: saline): 5 of 6 | survivor count (T/C endpoint: mean survival time, dose: 200.0 mg/kg/injection, schedule: Q04DX003 (ip), vehicle: saline): 1 of 6 | survivor count (T/C endpoint: mean survival time, dose: 400.0 mg/kg/injection, schedule: Q04DX003 (ip), vehicle: saline): 0 of 6

Cc1c(CC=C(c2ccccc2)c2ccccc2)cccc1C[N+](C)(C)C
survivor count (T/C endpoint: mean survival time, dose: 50.0 mg/kg/injection, schedule: Q01DX001 (ip), vehicle: carboxymethylcellulose (CMC)): 2 of 4 | survivor count [1]: 1 of 4 | survivor count [2]: 0 of 4

CN(C)/N=N/c1[nH]ncc1C(N)=O
T/C (T/C endpoint: mean survival time, dose: 65.0 mg/kg/injection, schedule: Q01DX009 (ip), vehicle: saline): 142 % of control | T/C (T/C endpoint: mean survival time, dose: 178.0 mg/kg/injection, schedule: Q01DX001 (ip), vehicle: saline): 126 % of control [5 of 6 alive] | T/C (T/C endpoint: mean survival time, dose: 180.0 mg/kg/injection, schedule: Q01DX009 (ip), vehicle: saline): 134 % of control | T/C (T/C endpoint: mean survival time, dose: 200.0 mg/kg/injection, schedule: Q01DX001 (ip), vehicle: saline): 125 % of control | T/C (T/C endpoint: mean survival time, dose: 267.0 mg/kg/injection, schedule: Q01DX001 (ip), vehicle: saline): 142 % of control | T/C (T/C endpoint: mean survival time, dose: 400.0 mg/kg/injection, schedule: Q01DX001 (ip), vehicle: saline): 136 and 143 % of control | T/C (T/C endpoint: median survival time, dose: 25.0 mg/kg/injection, schedule: Q01DX009 (ip), vehicle: saline): 133 % of control | T/C (T/C endpoint: median survival time, dose: 50.0 mg/kg/injection, schedule: Q01DX009 (ip), vehicle: saline): 144 % of control | T/C (T/C endpoint: median survival time, dose: 100.0 mg/kg/injection, schedule: Q01DX009 (ip), vehicle: saline): 144 % of control | T/C (T/C endpoint: median survival time, dose: 200.0 mg/kg/injection, schedule: Q01DX009 (ip), vehicle: saline): 127 % of control

[O]=[Sn]([OH])[OH]
survivor count (T/C endpoint: mean survival time, dose: 400.0 mg/kg/injection, schedule: Q01DX009 (ip), vehicle: saline): 5 of 6
